Some peptides are written in HELM: one residue between dots, names in brackets for other building blocks, links after the first $.
Experiment: general procedure: Fmoc solid-phase peptide synthesis; PyBOP, HOBt and DIEA
Details: whole synthesis

Substance: PEPTIDE1{[Mca].G.D.A.E.[pTyr].A.A.[Lys(DNP)].R.[am]}$$$$V2.0
- crude yield: 97%

Source: patent US5917012 (dated 1999)
